Record: PubChem BioAssay AID602196 (INSERM, 2012)
The deposit covers about 23,000 reagents; this is a random part of them. Over the whole deposit, 455 (2%) got an active call. 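Active includes both protection and sensitisation; some change values fall well beyond the stated -50 to +50 range.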 Unmarked entries are inactive. The numbers tell different reagents against one gene apart. Reagent sequences are not shown. Not given: the amount of reagent.

- Purpose: 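Knock-downs that protect lung cancer cells from cisplatin or sensitise them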
- System: human A549 lung cancer cells
- Reagents: siRNA pair against human genes
- Time to read-out: 48 h transfection before cisplatin; time from cisplatin to read-out not stated
- Conditions: cisplatin at a dose killing half of control-siRNA cells; exact dose and duration not given
- Read-out: 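Shift in cisplatin death relative to control siRNA, from -50 (all cells die) to +50 (no cells die); siRNAs harmful on their own scored 0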
- Direction: two-siRNA summed score (-2 to +2): higher = both siRNAs protect from cisplatin killing; -2 means both sensitise; mean protection from cisplatin (shift in death) and protection from cisplatin (shift in death), siRNA C and protection from cisplatin (shift in death), siRNA D: higher = protection from cisplatin killing
- Call rule: 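siRNAs harmful alone (LDH or WST-1) get 0; others get +1 for less and -1 for more cisplatin killing; genes are active when the two siRNAs give the same sign, summing to ±2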
- Calls: active = both siRNAs shift cisplatin killing the same way; inactive = no consistent shift, or siRNA harmful alone

gene	reagent no.	two-siRNA summed score (-2 to +2)	mean protection from cisplatin (shift in death) (%)	protection from cisplatin (shift in death), siRNA C (%)	protection from cisplatin (shift in death), siRNA D (%)
TMEM50A	1	0	0.3	-6.2	6.7
ACAD8	1	0	-5.6	0.6	-11.8
DNAAF19	1	0	11.8	20.1	3.6
BCR	1	-1	-1.2	16.4	-18.8
SACK1B	1	1	14.5	9.4	19.7
SEC14L1	1	0	1.8	-21	24.6
CASP1P2	1	0	10.3	5.6	15.1
LOC400566	1	0	10.5	8.3	12.8
LOC400304	1	0	-0.7	-16	14.6
POLR2H	1	0	-7	2.4	-16.4
ELAPOR1	1	0	18.3	11.4	25.3
PITPNM1	1	0	2.3	-5.6	10.2
TULP3	1	0	2.4	-2	6.8
LOC339977	1	0	0.4	-2.6	3.4
TAF3	1	0	8.3	22.8	-6.1
LCE1B	1	1	5.8	17.7	-6.2
LMNB2	1	0	-2.9	1.7	-7.5
MAPRE3	1	0	7.1	17.1	-2.9
WDR11	1	0	2.5	8.8	-3.8
LOC439958	1	0	4.9	13.8	-4.1
TTLL11	1	0	0.4	3.4	-2.6
TTLL11	2	0	15.1	8.2	22
ARID1B	1	0	9.9	9.3	10.4
LOC388429	1	1	17.2	14.1	20.3
TTLL1	1	0	13.4	12.8	13.9
LOC400512	1	0	0.8	6.7	-5.1

Only “two-siRNA summed score (-2 to +2)” (2 entries from above):
SACK1B	1
SEC14L1	0

Further entries follow.
gene	reagent no.	two-siRNA summed score (-2 to +2)	mean protection from cisplatin (shift in death) (%)	protection from cisplatin (shift in death), siRNA C (%)	protection from cisplatin (shift in death), siRNA D (%)
LOC440497	1	1	7.4	-0.4	15.1
RPL7L1	1	0	3	-3.5	9.6
GSX1	1	0	4.7	-1.3	10.7
GALNT4	1	0	6.8	5.3	8.3
RNF149	1	0	13.1	18.4	7.8
ZNF550	1	0	-1.1	-3.6	1.4
RRM1	1	-1	-8.5	-14.3	-2.7
LOC442535	1	0	-0.7	-5.8	4.4
LOC441069	1	0	14.2	10.2	18.3
LRPAP1	1	0	-11.9	-18.9	-4.9
MGC22265	1	0	5.9	6.6	5.2
SRSF12	1	0	10.6	2.4	18.7
LOC441048	1	0	7.4	11.6	3.1
